Reference: patent publication US20250152580A1, “METHODS FOR TREATING IMMUNE DISEASES” (Ascentage Pharma (Suzhou) co., Ltd., priority 2022, published 2025)
At least one compound was matched to its structure with a doubt left.

Legend:
Assay type in all cases: in vivo
OVA induced asthma model = experiment: OVA (ovalbumin) induced asthma model in Balb/cA mice; conditions: Cpd. X 50 mg/kg iv biw, dexamethasone 3 mg/kg po qd, compared with Vehicle
Excerpt: Ovalbumin (OVA)-sensitized and challenged BALB/c mice are widely used as an asthma model and are characterized by high levels of serum IgE, airway inflammation, epithelial hypertrophy, goblet cell hyperplasia, and AHR, which are similar to the features observed in human allergic asthma.
Female Balb/cA mice (8 weeks old) were obtained from Shanghai Jihui Laboratory Animal Co. Ltd. Animals were housed and handled in a temperature-controlled environment with a 12-h light/12-h dark cycle. A total of 66 mice were assigned to 6 groups by randomization based on body weight.
Mice in Group 2 are intraperitoneally immunized with OVA (25 μg) emulsified in Imject alum (2.0 mg of Al[OH]3) on day 1. During this sensitization phase, the mice produce anti-OVA IgE antibodies, which bind IgE receptors on mast cells. After this sensitization, the mice are intratracheally challenged with OVA from day 8 today 14, resulting in OVA cross-linked IgE on mast cells and leading to degranulating mast cells. Mice then develop clinical features of asthma. The mice in the Group 1 normal control group were sensitized and challenged with […] (without OVA). […]
Airway responsiveness was determined invasively based on lung resistance. […]
Twenty-four hours after the final OVA challenge (on day 15), mice were killed, and BAL cells were collected by means of slow injection of ice-cold PBS into the trachea, which was repeated 3 times. Numbers of cells in BAL fluid were counted with a chamber. Number of eosinophils in a total of 100 cells was counted under a microscope. Results are expressed as percentage of eosinophils of BAL fluid.
Twenty-four hours after the final OVA challenge (on day 15), mice were killed, and the serum was collected. The OVA-specific IgE levels were measured with the method of enzyme linked immunosorbent assay (ELISA) according to manufacturer protocol.
Twenty-four hours after the final OVA challenge (on day 15), mice were killed, and the lung tissue samples were collected and fixed in 4% paraformaldehyde. […] The histopathological score was evaluated microscopically in a blinded manner. […]

OXA induced DTH model = experiment: OXA induced delayed type hypersensitivity (DTH) model in Balb/c mice; conditions: Cpd. 4 100 mg/kg po; dexamethasone 0.05 mg/ear topical 1 h/6 h after challenge on day 6
Excerpt: A delayed-type hypersensitivity (DTH) reaction is an expression of cell-mediated immunity and plays a major role in the pathology and chronicity of many inflammatory disorders. Delayed-type hypersensitivity (DTH) reactions can be induced by allergens, including oxazolone.
Female Balb/c mice (6-8 weeks old) were obtained from Shanghai Jihui Experiment Animal Feeding Co. Ltd. Animals were housed and handled in a temperature-controlled environment with a 12-h light/12-h dark cycle. A total of 48 mice were assigned to 6 groups by randomization based on body weight.
To induce DTH, all right ears of mice except the G1 sham control group were applied with oxazolone (OXA). Briefly, skin inflammation was induced by topical administration with 100 μL of 1.5% OXA dissolved in acetone/olive oil on day 1 and repeated 20 μL of 1% OXA on day 6. G1 sham control group was treated same volume of vehicles. Therapeutic group of 100 mg/kg Cpd. 4 (po, 0 h/6 h after challenge on day 6) or 0.05 mg/ear dexamethasone (topical, 1 h/6 h after challenge on day 6) were applied to the mice. […]
Ear thickness were measured with a micrometer before challenge on day 6 and 24 h after oxazolone challenge on Day 7 and reported as the mean change in ear thickness. […]

[1] = test system: OXA induced atopic dermatitis model; experiment: OXA induced atopic dermatitis (AD) model in C57BL/6 mice; conditions: Cpd. 4 10, 30 and 100 mg/kg po qd day 7-25; dexamethasone 25 μL of 0.09% (w/v) topical qd; compared with Vehicle
Excerpt: Atopic dermatitis (AD) is a chronic skin disease that presents with itching, erythema and squamous lesions. Haptenating agent oxazolone (OXA) sensitization and continuous challenge establish AD like skin inflammation.
Female C57BL/6 mice (6 weeks old) were obtained from Biocytogen Laboratory Animal Co. Ltd. Animals were housed and handled in a temperature-controlled environment with a 12-h light/12-h dark cycle. A total of 48 mice were assigned to 6 groups by randomization based on body weight.
To induce AD-like lesion, all right ears of mice except the G1 sham control group were applied with oxazolone (OXA). Briefly, skin inflammation was induced by topical administration with 25 μL of 0.8% OXA dissolved in acetone on day 0, and repeated 25 μl of 0.4% OXA three times a week from day 7 to 25. G1 sham control group was treated same volume of vehicles. Therapeutic groups as 10 mg/kg, 30 mg/kg and 100 mg/kg Cpd. 4 (po, qd, day 7 to day 25) or 25 μL of 0.09% (w/v) dexamethasone (topical, qd, day 7 to day 25) were applied to the mice. The protocols and procedures involving the care and use of animals were approved by the Institutional Animal Care and Use Committee (IACUC) at Biocytogen (Beijing, China).
Ear thickness of mice was measured before application of Oxa and every other day from day 7 to day 26. […]

[2] = day 15, Cpd. 4 30 and 100 mg/kg po qd

In the case of `C[C@@H]1C[C@H]2[C@@H]3CCC4=CC(=O)C=C[C@]4(C)[C@@]3(F)[C@@H](O)C[C@]2(C)[C@@]1(O)C(=O)CO` [dexamethasone, reference compound], the “percentage of eosinophils in BALF” value (OVA induced asthma model; [2]) is reported as “significantly reduced”, the “serum OVA-specific IgE (ELISA)” value (OVA induced asthma model; [2]) is reported as “reduced IgE” and the “airway stenosis index (penh), airway hyper-responsiveness (AHR)” value (OVA induced asthma model; methacholine challenge day 13, Cpd. 4 30 and 100 mg/kg po qd day 8-14) is reported as “lower airway stenosis index”. The “increase of ear thickness (in words)” value (OXA induced DTH model) was “showed efficacy” and the ear thickness [1] was “significantly lower ear thickness”.
